The supplement of paper PMC6411743
± gives the standard deviation of the averaged measurements. The list shows a part of the results, in another mix than the full data. Small differences around the control level are noise.

Sequences of proteins named here, by UniProt entry; tags and fusion partners are left off. A change or cut given only in a name is not applied to a line headed by its entry.
UniProt P42285: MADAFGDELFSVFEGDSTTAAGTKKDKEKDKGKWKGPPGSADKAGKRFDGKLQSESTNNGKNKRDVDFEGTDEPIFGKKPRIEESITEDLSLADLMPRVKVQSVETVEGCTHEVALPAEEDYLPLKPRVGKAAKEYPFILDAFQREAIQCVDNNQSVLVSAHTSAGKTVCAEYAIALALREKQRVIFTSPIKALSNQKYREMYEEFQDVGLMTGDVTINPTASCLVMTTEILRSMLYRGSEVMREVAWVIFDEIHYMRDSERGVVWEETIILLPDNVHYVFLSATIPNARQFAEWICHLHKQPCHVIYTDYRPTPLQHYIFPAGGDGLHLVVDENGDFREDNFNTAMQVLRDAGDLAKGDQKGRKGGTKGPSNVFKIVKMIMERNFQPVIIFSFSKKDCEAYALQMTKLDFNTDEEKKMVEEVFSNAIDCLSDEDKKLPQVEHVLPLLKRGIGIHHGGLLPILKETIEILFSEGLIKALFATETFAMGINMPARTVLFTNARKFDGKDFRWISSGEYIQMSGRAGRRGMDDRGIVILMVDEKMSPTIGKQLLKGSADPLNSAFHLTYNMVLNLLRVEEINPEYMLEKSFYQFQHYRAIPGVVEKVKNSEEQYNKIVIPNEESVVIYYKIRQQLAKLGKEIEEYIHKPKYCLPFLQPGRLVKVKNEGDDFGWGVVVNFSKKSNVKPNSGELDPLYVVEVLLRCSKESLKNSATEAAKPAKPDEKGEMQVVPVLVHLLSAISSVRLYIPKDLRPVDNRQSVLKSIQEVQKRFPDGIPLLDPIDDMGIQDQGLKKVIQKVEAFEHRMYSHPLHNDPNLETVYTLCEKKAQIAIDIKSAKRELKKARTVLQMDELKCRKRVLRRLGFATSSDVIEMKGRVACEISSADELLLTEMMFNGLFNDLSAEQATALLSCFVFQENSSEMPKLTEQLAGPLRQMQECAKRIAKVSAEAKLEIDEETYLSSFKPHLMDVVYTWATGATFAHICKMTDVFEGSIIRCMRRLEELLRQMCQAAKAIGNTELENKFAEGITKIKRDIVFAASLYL
UniProt P51580: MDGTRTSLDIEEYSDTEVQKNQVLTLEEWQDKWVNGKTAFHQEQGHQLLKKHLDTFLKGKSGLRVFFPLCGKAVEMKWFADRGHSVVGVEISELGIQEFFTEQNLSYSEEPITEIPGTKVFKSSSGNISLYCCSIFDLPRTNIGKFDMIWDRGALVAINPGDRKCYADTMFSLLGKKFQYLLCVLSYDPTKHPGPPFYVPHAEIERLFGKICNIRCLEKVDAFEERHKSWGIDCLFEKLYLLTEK
UniProt P35754: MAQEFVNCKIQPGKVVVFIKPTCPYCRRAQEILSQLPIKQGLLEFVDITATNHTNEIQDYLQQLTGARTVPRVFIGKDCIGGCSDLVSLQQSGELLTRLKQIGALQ
UniProt P51114, whole entry: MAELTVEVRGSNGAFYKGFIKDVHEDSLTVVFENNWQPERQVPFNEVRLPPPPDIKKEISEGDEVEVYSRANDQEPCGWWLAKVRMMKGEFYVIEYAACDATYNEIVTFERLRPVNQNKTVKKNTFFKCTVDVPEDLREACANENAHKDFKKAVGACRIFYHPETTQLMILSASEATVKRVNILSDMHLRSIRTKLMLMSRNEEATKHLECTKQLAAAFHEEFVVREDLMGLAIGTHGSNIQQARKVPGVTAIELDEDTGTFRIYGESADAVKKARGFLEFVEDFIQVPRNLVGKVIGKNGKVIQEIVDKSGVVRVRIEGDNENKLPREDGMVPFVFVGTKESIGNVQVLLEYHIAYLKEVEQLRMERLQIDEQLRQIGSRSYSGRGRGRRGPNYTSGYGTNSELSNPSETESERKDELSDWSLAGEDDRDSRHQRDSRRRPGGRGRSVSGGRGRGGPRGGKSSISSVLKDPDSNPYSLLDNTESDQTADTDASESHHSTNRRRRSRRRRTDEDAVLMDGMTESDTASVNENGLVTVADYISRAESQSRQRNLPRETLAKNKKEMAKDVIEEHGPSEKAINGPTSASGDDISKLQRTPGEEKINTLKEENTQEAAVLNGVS
UniProt P52758: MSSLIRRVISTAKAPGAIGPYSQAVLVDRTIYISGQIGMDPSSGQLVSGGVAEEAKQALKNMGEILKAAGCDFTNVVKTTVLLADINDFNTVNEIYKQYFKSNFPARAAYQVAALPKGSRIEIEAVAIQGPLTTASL
UniProt P46527, whole entry: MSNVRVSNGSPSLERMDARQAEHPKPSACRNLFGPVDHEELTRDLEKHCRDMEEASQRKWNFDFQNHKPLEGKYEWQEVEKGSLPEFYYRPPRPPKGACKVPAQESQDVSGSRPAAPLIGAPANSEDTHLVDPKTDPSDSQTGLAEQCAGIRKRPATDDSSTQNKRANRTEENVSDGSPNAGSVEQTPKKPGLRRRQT
UniProt P41240: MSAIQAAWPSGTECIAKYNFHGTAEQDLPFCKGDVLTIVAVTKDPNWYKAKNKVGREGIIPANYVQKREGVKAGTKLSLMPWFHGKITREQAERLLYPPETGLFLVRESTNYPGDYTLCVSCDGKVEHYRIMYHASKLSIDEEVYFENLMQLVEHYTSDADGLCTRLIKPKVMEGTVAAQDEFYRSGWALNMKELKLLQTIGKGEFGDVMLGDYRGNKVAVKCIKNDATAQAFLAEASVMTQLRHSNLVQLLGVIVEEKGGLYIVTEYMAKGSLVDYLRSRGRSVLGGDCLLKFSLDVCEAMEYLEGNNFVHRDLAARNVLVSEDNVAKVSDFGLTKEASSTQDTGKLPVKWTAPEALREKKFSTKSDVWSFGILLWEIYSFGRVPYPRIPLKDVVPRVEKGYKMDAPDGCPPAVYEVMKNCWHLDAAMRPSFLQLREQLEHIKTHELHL
UniProt P52333: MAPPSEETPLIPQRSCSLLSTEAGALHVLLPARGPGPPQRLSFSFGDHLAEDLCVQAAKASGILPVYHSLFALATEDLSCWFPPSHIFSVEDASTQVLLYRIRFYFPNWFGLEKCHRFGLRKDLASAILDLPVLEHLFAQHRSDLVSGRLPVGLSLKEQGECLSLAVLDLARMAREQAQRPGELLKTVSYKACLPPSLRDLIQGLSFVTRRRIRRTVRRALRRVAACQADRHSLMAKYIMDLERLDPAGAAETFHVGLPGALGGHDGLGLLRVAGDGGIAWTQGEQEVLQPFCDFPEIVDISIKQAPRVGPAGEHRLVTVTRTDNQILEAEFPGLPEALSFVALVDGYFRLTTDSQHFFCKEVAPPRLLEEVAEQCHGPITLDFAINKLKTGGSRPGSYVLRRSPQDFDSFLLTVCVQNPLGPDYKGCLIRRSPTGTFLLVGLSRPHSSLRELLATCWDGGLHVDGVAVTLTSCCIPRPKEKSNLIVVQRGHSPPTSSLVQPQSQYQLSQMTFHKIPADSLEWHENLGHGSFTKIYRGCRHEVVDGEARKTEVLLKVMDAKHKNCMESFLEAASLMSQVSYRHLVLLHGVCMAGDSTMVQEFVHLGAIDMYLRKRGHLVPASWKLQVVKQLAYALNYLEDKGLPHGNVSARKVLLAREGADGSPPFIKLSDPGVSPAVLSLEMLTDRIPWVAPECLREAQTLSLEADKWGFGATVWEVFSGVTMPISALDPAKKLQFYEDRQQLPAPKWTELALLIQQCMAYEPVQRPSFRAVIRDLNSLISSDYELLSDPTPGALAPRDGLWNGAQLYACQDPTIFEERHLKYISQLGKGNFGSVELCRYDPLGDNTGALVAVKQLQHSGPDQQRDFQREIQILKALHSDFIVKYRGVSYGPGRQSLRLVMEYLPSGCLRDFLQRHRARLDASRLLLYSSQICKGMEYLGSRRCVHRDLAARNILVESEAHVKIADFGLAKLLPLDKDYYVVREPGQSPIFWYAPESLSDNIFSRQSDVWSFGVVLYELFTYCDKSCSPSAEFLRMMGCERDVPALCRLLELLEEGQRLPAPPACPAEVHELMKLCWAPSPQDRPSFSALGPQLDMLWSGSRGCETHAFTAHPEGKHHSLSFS
UniProt P50213: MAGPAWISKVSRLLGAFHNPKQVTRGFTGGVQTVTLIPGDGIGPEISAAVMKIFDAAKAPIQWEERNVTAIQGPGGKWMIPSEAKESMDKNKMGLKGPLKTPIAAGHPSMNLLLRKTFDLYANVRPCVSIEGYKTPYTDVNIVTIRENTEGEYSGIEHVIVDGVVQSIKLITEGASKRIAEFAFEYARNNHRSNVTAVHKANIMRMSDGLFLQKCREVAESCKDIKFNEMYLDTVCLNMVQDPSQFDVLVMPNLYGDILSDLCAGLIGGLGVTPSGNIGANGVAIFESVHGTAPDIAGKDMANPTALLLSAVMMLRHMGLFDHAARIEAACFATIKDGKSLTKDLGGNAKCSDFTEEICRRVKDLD
UniProt P49756, whole entry: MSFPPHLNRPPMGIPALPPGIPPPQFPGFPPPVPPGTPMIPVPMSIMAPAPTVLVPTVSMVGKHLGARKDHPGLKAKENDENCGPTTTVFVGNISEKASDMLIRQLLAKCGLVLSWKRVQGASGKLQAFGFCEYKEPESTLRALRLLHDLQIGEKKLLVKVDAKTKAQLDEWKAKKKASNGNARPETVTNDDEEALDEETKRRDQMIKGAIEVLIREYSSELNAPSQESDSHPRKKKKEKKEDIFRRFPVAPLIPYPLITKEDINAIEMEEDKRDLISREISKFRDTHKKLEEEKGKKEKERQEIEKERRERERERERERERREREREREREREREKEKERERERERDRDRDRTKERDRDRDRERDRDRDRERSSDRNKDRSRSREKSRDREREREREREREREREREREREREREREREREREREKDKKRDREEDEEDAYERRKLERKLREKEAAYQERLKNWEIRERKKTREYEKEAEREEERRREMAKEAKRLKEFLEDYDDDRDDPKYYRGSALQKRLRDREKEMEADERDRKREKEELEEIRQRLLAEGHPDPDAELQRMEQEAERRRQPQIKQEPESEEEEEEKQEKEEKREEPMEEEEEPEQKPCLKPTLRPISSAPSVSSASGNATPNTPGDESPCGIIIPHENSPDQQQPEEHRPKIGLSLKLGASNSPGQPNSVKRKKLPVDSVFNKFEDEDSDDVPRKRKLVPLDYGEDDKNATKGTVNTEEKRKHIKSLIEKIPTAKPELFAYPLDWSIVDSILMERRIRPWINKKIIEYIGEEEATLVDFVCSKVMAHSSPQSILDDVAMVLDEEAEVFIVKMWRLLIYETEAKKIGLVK
UniProt P41252: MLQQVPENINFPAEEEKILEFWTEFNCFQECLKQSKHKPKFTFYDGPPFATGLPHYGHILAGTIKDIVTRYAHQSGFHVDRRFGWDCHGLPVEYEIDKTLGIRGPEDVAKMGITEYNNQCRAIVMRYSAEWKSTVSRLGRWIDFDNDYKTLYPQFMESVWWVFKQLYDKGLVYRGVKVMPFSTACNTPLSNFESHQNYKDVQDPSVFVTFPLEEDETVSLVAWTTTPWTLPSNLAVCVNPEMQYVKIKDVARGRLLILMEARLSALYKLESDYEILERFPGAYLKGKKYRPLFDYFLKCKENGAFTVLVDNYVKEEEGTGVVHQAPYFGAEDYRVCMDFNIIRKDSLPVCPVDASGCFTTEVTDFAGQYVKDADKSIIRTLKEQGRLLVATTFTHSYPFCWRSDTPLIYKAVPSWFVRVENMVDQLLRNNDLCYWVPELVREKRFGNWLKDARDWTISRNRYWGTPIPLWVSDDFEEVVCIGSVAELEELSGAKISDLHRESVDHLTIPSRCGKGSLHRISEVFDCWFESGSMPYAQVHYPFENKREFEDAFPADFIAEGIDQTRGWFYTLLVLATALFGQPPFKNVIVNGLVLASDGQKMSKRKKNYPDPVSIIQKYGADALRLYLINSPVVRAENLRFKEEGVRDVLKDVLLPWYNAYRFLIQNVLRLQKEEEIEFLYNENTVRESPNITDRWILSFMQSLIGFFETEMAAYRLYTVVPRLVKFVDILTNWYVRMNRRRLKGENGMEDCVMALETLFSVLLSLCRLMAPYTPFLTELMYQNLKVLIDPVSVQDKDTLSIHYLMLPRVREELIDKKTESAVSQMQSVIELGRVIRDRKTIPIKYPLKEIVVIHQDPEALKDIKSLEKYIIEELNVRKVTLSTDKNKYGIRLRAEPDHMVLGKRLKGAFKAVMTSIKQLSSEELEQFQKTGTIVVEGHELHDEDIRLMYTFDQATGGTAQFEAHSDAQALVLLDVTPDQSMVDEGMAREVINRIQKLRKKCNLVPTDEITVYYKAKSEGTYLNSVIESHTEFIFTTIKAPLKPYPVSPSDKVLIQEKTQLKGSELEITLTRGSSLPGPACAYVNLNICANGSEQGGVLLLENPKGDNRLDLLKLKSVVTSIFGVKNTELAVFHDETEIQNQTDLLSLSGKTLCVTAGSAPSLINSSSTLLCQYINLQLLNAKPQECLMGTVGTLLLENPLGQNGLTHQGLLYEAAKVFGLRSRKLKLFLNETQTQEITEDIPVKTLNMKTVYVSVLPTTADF
UniProt P36405: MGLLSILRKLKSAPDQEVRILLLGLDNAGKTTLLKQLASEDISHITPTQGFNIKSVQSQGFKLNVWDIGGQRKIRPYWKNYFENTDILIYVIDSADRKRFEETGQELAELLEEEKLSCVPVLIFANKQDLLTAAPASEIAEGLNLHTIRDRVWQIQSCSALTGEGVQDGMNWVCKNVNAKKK

Compound: Nc1ncnc2c1ncn2[C@@H]1O[C@H](COP(=O)(O)OP(=O)(O)OP(=O)(O)O)[C@@H](O)[C@H]1O [adenosine triphosphate]
Assay: NP40-soluble protein abundance relative to vehicle (solubility fold change) (ratio); higher = more soluble protein in presence of ATP
How it was run: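 Data come from three independent experiments in which Dounce-homogenised Jurkat crude lysate was treated at eight concentrations from 0.1 to 10 mM. Treatment ran 10 min at room temperature and then 3 min at 37 °C, after which 0.8% NP40 and benzonase were added for 60 min at 4 °C before ultracentrifugation. The supernatant underwent TMT labelling and LC-MS/MS, and vsn-normalised intensities were expressed as fold change against the detergent-processed vehicle in each replicate.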

| Target | NP40-soluble protein abundance (concentration: 0.1mM) | NP40-soluble protein abundance (concentration: 0.5mM) | NP40-soluble protein abundance (concentration: 1mM) | NP40-soluble protein abundance (concentration: 2mM) | NP40-soluble protein abundance (concentration: 4mM) | NP40-soluble protein abundance (concentration: 6mM) | NP40-soluble protein abundance (concentration: 8mM) | NP40-soluble protein abundance (concentration: 10mM) |
| --- | --- | --- | --- | --- | --- | --- | --- | --- |
| CCT8 (UniProt P50990) | 0.97 ± 0.046 | 0.997 ± 0.075 | 0.976 ± 0.029 | 0.909 ± 0.033 | 0.823 ± 0.036 | 0.86 ± 0.12 | 0.842 ± 0.081 | 0.835 ± 0.063 |
| PRIM2 (UniProt P49643) | 1.03 ± 0.023 | 1.04 ± 0.033 | 1.03 ± 0.057 | 1.02 ± 0.025 | 1.02 ± 0.032 | 1 ± 0.034 | 1.02 ± 0.028 | 1.03 ± 0.047 |
| CTCF (UniProt P49711) | 1.05 ± 0.04 | 1.04 ± 0.032 | 1.02 ± 0.027 | 0.993 ± 0.036 | 0.972 ± 0.034 | 0.895 ± 0.046 | 0.927 ± 0.032 | 0.894 ± 0.027 |
| UniProt P42285 | 1.04 ± 0.046 | 1.07 ± 0.028 | 1.07 ± 0.07 | 1.06 ± 0.035 | 1.09 ± 0.033 | 1.07 ± 0.031 | 1.2 ± 0.013 | 1.21 ± 0.066 |
| RFC3 (UniProt P40938) | 1.06 ± 0.054 | 1.18 ± 0.068 | 1.25 ± 0.036 | 1.3 ± 0.041 | 1.31 ± 0.041 | 1.31 ± 0.039 | 1.35 ± 0.061 | 1.36 ± 0.046 |
| TPMT (UniProt P51580) | 1.03 ± 0.092 | 1.03 ± 0.061 | 1 ± 0.084 | 1 ± 0.077 | 0.985 ± 0.064 | 0.954 ± 0.12 | 0.992 ± 0.057 | 0.979 ± 0.044 |
| GLRX (UniProt P35754) | 0.897 ± 0.11 | 0.878 ± 0.15 | – | – | – | – | – | – |
| UniProt P49354 and related entries | 1.07 ± 0.043 | 1.04 ± 0.044 | 1.05 ± 0.088 | 1.01 ± 0.059 | 1.03 ± 0.053 | 0.955 ± 0.12 | 1.04 ± 0.076 | 0.996 ± 0.062 |
| MAGEA9 (UniProt P43362) | 1.04 ± 0.098 | 1.08 ± 0.077 | – | – | – | – | – | – |
| UniProt P51114 and related entries | 1.15 ± 0.046 | 1.464 ± 0.013 | 1.644 ± 0.0088 | 1.79 ± 0.041 | 2.03 ± 0.048 | 2.17 ± 0.11 | 2.32 ± 0.039 | 2.4 ± 0.045 |
| UniProt P49903 and related entries | 1.03 ± 0.038 | 1.04 ± 0.082 | 1 ± 0.039 | 0.992 ± 0.02 | 0.962 ± 0.049 | 0.979 ± 0.068 | 0.966 ± 0.052 | 0.96 ± 0.042 |
| UniProt P52758 | 0.939 ± 0.044 | 0.889 ± 0.087 | – | – | – | – | – | – |
| FXR2 (UniProt P51116) | 1.14 ± 0.15 | 1.43 ± 0.027 | 1.68 ± 0.23 | 1.77 ± 0.15 | 2.06 ± 0.29 | 2.24 ± 0.27 | 2.26 ± 0.3 | 2.33 ± 0.26 |
| CDKN1B (UniProt P46527) | 0.953 ± 0.075 | 0.922 ± 0.1 | 0.964 ± 0.099 | 0.998 ± 0.057 | 0.985 ± 0.08 | 1.09 ± 0.077 | 0.919 ± 0.071 | 0.916 ± 0.1 |
| CSK (UniProt P41240) | 1.06 ± 0.064 | 1.05 ± 0.068 | – | – | – | – | – | – |
| NUP62 (UniProt P37198) | 0.9848 ± 0.008 | 0.955 ± 0.059 | – | – | – | – | – | – |
| UniProt P52333 and related entries | 1.106 ± 0.0098 | 1.05 ± 0.031 | – | – | – | – | – | – |
| UniProt P50213 and related entries | 1 ± 0.058 | 1.01 ± 0.047 | 0.98 ± 0.039 | 0.963 ± 0.04 | 0.922 ± 0.036 | 0.95 ± 0.058 | 0.949 ± 0.057 | 0.932 ± 0.043 |
| UniProt P49761 and related entries | 1.13 ± 0.08 | 1.25 ± 0.014 | 1.317 ± 0.008 | 1.56 ± 0.035 | 1.54 ± 0.018 | 1.43 ± 0.13 | 1.81 ± 0.23 | 2.065 ± 0.019 |
| PSMD7 (UniProt P51665) | 0.991 ± 0.061 | 0.987 ± 0.032 | – | – | – | – | – | – |
| PSMC2 (UniProt P35998) | 0.974 ± 0.031 | 0.947 ± 0.052 | 0.9515 ± 0.0057 | 0.914 ± 0.029 | 0.882 ± 0.016 | 0.908 ± 0.1 | 0.899 ± 0.053 | 0.894 ± 0.047 |
| IGHMBP2 (UniProt P38935) | 1.12 ± 0.062 | 1.31 ± 0.058 | 1.41 ± 0.11 | 1.59 ± 0.088 | 1.84 ± 0.09 | 2.01 ± 0.13 | 2.19 ± 0.2 | 2.4 ± 0.14 |
| UniProt P49748 and related entries | 1.03 ± 0.046 | 1.016 ± 0.0095 | 0.997 ± 0.081 | 0.989 ± 0.064 | 0.983 ± 0.027 | 0.934 ± 0.083 | 0.986 ± 0.015 | 0.973 ± 0.045 |
| RBM25 (UniProt P49756) | 0.962 ± 0.087 | 1.1 ± 0.11 | 1.21 ± 0.074 | 1.33 ± 0.12 | 1.68 ± 0.22 | 2.25 ± 0.24 | 2.63 ± 0.34 | 3.08 ± 0.38 |
| EMD (UniProt P50402) | 0.971 ± 0.058 | 1.13 ± 0.072 | 1.13 ± 0.096 | 1.16 ± 0.1 | 1.14 ± 0.11 | 1.11 ± 0.1 | 1.12 ± 0.086 | 1.15 ± 0.05 |
| UniProt P52594 and related entries | 0.975 ± 0.015 | 0.975 ± 0.027 | 0.945 ± 0.033 | 0.961 ± 0.012 | 0.963 ± 0.019 | 0.987 ± 0.037 | 0.93 ± 0.052 | 0.918 ± 0.033 |
| IARS (UniProt P41252) | 1.04 ± 0.063 | 1.04 ± 0.024 | 1.1 ± 0.14 | 1 ± 0.072 | 0.974 ± 0.058 | 0.905 ± 0.059 | 1.05 ± 0.035 | 0.975 ± 0.078 |
| ARL3 (UniProt P36405) | 0.993 ± 0.046 | 0.967 ± 0.017 | 0.978 ± 0.0088 | 0.944 ± 0.057 | 0.937 ± 0.057 | 0.926 ± 0.066 | 0.945 ± 0.037 | 0.946 ± 0.049 |
| VAMP7 (UniProt P51809) | 0.998 ± 0.058 | 1 ± 0.041 | 0.955 ± 0.046 | 0.958 ± 0.05 | 0.938 ± 0.028 | 0.894 ± 0.1 | 0.943 ± 0.044 | 0.945 ± 0.044 |
| RPL5 (UniProt P46777) | 0.966 ± 0.035 | 0.96 ± 0.043 | – | – | – | – | – | – |

Single records, from the list above.
UniProt P49903 and related entries in the list: NP40-soluble protein abundance (concentration: 0.1mM): 1.03 ± 0.038; NP40-soluble protein abundance (concentration: 0.5mM): 1.04 ± 0.082; NP40-soluble protein abundance (concentration: 1mM): 1 ± 0.039; NP40-soluble protein abundance (concentration: 2mM): 0.992 ± 0.02; NP40-soluble protein abundance (concentration: 4mM): 0.962 ± 0.049; NP40-soluble protein abundance (concentration: 6mM): 0.979 ± 0.068; NP40-soluble protein abundance (concentration: 8mM): 0.966 ± 0.052; NP40-soluble protein abundance (concentration: 10mM): 0.96 ± 0.042
UniProt P52758 in the list: NP40-soluble protein abundance (concentration: 0.1mM): 0.939 ± 0.044; NP40-soluble protein abundance (concentration: 0.5mM): 0.889 ± 0.087
